This passage reports crude mass and crude yield results from patent US9550078B2 (CAREGEN CO., LTD., priority 2011, dated 2017).

Where no end group is shown, it is not given here.

The nature of this series: general procedure: peptide synthesis; CTL resin. As to conditions: whole synthesis.

In turn, NMSKHTTFFGA had a crude mass of 0.85 g. This sequence also had a crude yield (scale of the general procedure 700 mg resin) of 89.9%.
